Laboratory results from patent publication US20260256792A1, “TREATMENT OF CHRONIC SPONTANEOUS URTICARIA BY ADMINISTERING (R)-2-[3-[4-AMINO-3-(2-FLUORO-4-PHENOXY-PHENYL)PYRAZOLO[3,4-D]PYRIMIDIN-1-YL]PIPERIDINE-1-CARBONYL]-4-METHYL-4-[4-(OXETAN-3-YL)PIPERAZIN-1-YL]PENT-2-ENENITRILE” (priority 2023, published 2026).
This continues a long series; more values of the same kind are listed elsewhere.

System: moderate-to-severe chronic spontaneous urticaria (CSU)
Assay: Phase 2 CSU study: itch severity score over 7 days (ISS7)
Assay type: in vivo, human
Details: Omalizumab-Naïve
From the text: The study comprises a 12 week, randomized, double-blind, placebo-controlled, multi-center, dose-ranging efficacy and safety phase, followed by a 40 week open label extension (OLE) phase (see FIG. 1). The study consists of three phases and an optional OLE phase. […] Clinically, CSU is characterized by the spontaneous and recurrent appearance of pruritic hives. The proposed primary endpoints were the UAS7 at Week 12 in EU and EU reference countries and the ISS7 in the US. Regardless of where a participant was from, all assessments were the same. The UAS7 score is a composite score containing both the HSS7 and the ISS7. This allowed a global assessment of the two key components of urticaria: hives and itch. […] The UAS is a validated PRO measure. […] The daily UAS scores range from 0 to 6 point/day. […] Patients were to complete the UAS using the e-diary. […] The following secondary endpoints were to be analyzed using the same approach as for the primary endpoint: • Change from baseline in UAS7 at Week 4 • Change from baseline in UAS7 at Week 12 (for US and US reference countries) • Change from baseline in ISS7 at Week 12 (except US and US reference countries) • Change from baseline in HSS7 at Week 12

Structure (SMILES): CC(C)(C=C(C#N)C(=O)N1CCC[C@@H](n2nc(-c3ccc(Oc4ccccc4)cc3F)c3c(N)ncnc32)C1)N1CCN(C2COC2)CC1 [rilzabrutinib, (R)-2-[3-[4-amino-3-(2-fluoro-4-phenoxy-phenyl)pyrazolo[3,4-d]pyrimidin-1-yl]piperidine-1-carbonyl]-4-methyl-4-[4-(oxetan-3-yl)piperazin-1-yl]pent-2-enenitrile]
- ISS7 Change difference for rilzabrutinib vs. placebo LS Mean (95% CI) (400 mg BID, Week 6): −1.76
- ISS7 Change from baseline LS Mean (SE) (400 mg BID, Week 6): −6.57 (0.97)
- ISS7 % Change difference for rilzabrutinib vs. placebo LS Mean (95% CI) (400 mg BID, Week 7): −17.04 (−33.33, −0.75) %
- ISS7 % Change from baseline LS Mean (SE) (400 mg BID, Week 7): −46.77 (6.08) %
- ISS7 Change difference for rilzabrutinib vs. placebo LS Mean (95% CI) (400 mg BID, Week 7): −2.36
- ISS7 Change from baseline LS Mean (SE) (400 mg BID, Week 7): −7.47 (0.94)
- ISS7 % Change difference for rilzabrutinib vs. placebo LS Mean (95% CI) (400 mg BID, Week 8): −20.68 (−37.61, −3.74) %
- ISS7 % Change from baseline LS Mean (SE) (400 mg BID, Week 8): −52.58 (6.34) %
- ISS7 Change difference for rilzabrutinib vs. placebo LS Mean (95% CI) (400 mg BID, Week 8): −2.79
- ISS7 Change from baseline LS Mean (SE) (400 mg BID, Week 8): −8.20 (0.98)
- ISS7 % Change difference for rilzabrutinib vs. placebo LS Mean (95% CI) (400 mg BID, Week 9): −22.21 (−38.97, −5.44) %
- ISS7 % Change from baseline LS Mean (SE) (400 mg BID, Week 9): −51.70 (6.32) %
- ISS7 Change difference for rilzabrutinib vs. placebo LS Mean (95% CI) (400 mg BID, Week 9): −2.94
- ISS7 Change from baseline LS Mean (SE) (400 mg BID, Week 9): −7.96 (0.99)
- ISS7 % Change difference for rilzabrutinib vs. placebo LS Mean (95% CI) (400 mg BID, Week 10): −13.81 (−31.52, 3.91) %
- ISS7 % Change from baseline LS Mean (SE) (400 mg BID, Week 10): −48.38 (6.69) %
- ISS7 Change difference for rilzabrutinib vs. placebo LS Mean (95% CI) (400 mg BID, Week 10): −2.09
- ISS7 % Change difference for rilzabrutinib vs. placebo LS Mean (95% CI) (400 mg BID, Week 11): −17.86 (−35.62, −0.09) %
- ISS7 % Change from baseline LS Mean (SE) (400 mg BID, Week 11): −49.16 (6.63) %
- ISS7 Change difference for rilzabrutinib vs. placebo LS Mean (95% CI) (400 mg BID, Week 11): −2.43
- ISS7 Change from baseline LS Mean (SE) (400 mg BID, Week 11): −7.75 (1.02)
- ISS7 % Change difference for rilzabrutinib vs. placebo LS Mean (95% CI) (400 mg QPM, Week 5): 2.23 (−13.08, 17.55) %
- ISS7 % Change from baseline LS Mean (SE) (400 mg QPM, Week 5): −31.89 (5.56) %
- ISS7 Change difference for rilzabrutinib vs. placebo LS Mean (95% CI) (400 mg QPM, Week 5): 0.33
- ISS7 Change from baseline LS Mean (SE) (400 mg QPM, Week 5): −5.30 (0.88)
- ISS7 % Change difference for rilzabrutinib vs. placebo LS Mean (95% CI) (400 mg QPM, Week 6): −8.63 (−25.16, 7.90) %
- ISS7 % Change from baseline LS Mean (SE) (400 mg QPM, Week 6): −36.29 (6.07) %
- ISS7 Change difference for rilzabrutinib vs. placebo LS Mean (95% CI) (400 mg QPM, Week 6): −1.21
- ISS7 Change from baseline LS Mean (SE) (400 mg QPM, Week 6): −6.02 (0.95)
- ISS7 % Change difference for rilzabrutinib vs. placebo LS Mean (95% CI) (400 mg QPM, Week 7): −8.51 (−24.78, 7.77) %
- ISS7 % Change from baseline LS Mean (SE) (400 mg QPM, Week 7): −38.23 (5.98) %
- ISS7 Change difference for rilzabrutinib vs. placebo LS Mean (95% CI) (400 mg QPM, Week 7): −1.06
- ISS7 Change from baseline LS Mean (SE) (400 mg QPM, Week 7): −6.16 (0.93)
- ISS7 % Change difference for rilzabrutinib vs. placebo LS Mean (95% CI) (400 mg QPM, Week 8): −5.64 (−22.51, 11.23) %
- ISS7 % Change from baseline LS Mean (SE) (400 mg QPM, Week 8): −37.54 (6.29) %
- ISS7 Change difference for rilzabrutinib vs. placebo LS Mean (95% CI) (400 mg QPM, Week 8): −0.55
- ISS7 Change from baseline LS Mean (SE) (400 mg QPM, Week 8): −5.96 (0.96)
- ISS7 % Change from baseline LS Mean (SE) (400 mg QPM, Week 9): −37.27 (6.13) %
- ISS7 Change difference for rilzabrutinib vs. placebo LS Mean (95% CI) (400 mg QPM, Week 9): −1.08
- ISS7 Change from baseline LS Mean (SE) (400 mg QPM, Week 9): −6.10 (0.96)
- ISS7 % Change difference for rilzabrutinib vs. placebo LS Mean (95% CI) (400 mg QPM, Week 10): −4.17 (−21.94, 13.59) %
- ISS7 % Change from baseline LS Mean (SE) (400 mg QPM, Week 10): −38.74 (6.43) %
- ISS7 Change difference for rilzabrutinib vs. placebo LS Mean (95% CI) (400 mg QPM, Week 10): −0.58
- ISS7 Change from baseline LS Mean (SE) (400 mg QPM, Week 10): −6.26 (1.01)
- ISS7 % Change difference for rilzabrutinib vs. placebo LS Mean (95% CI) (400 mg QPM, Week 11): −4.87 (−22.51, 12.77) %
- ISS7 % Change from baseline LS Mean (SE) (400 mg QPM, Week 11): −36.17 (6.53) %
- ISS7 Change difference for rilzabrutinib vs. placebo LS Mean (95% CI) (400 mg QPM, Week 11): −0.42
- ISS7 Change from baseline LS Mean (SE) (400 mg QPM, Week 11): −5.73 (1.00)
- ISS7 % Change difference for rilzabrutinib vs. placebo LS Mean (95% CI) (400 mg TID, Week 5): −19.52 (−35.10, −3.93) %
- ISS7 % Change from baseline LS Mean (SE) (400 mg TID, Week 5): −53.64 (5.75) %
- ISS7 Change difference for rilzabrutinib vs. placebo LS Mean (95% CI) (400 mg TID, Week 5): −2.88
- ISS7 Change from baseline LS Mean (SE) (400 mg TID, Week 5): −8.51 (0.91)
- ISS7 % Change difference for rilzabrutinib vs. placebo LS Mean (95% CI) (400 mg TID, Week 6): −24.70 (−41.62, −7.79) %
- ISS7 % Change from baseline LS Mean (SE) (400 mg TID, Week 6): −52.36 (6.28) %
- ISS7 Change difference for rilzabrutinib vs. placebo LS Mean (95% CI) (400 mg TID, Week 6): −3.47
- ISS7 Change from baseline LS Mean (SE) (400 mg TID, Week 6): −8.27 (0.99)
- ISS7 % Change difference for rilzabrutinib vs. placebo LS Mean (95% CI) (400 mg TID, Week 7): −24.69 (−41.39, −7.99) %
- ISS7 % Change from baseline LS Mean (SE) (400 mg TID, Week 7): −54.42 (6.29) %
- ISS7 Change difference for rilzabrutinib vs. placebo LS Mean (95% CI) (400 mg TID, Week 7): −3.43
- ISS7 Change from baseline LS Mean (SE) (400 mg TID, Week 7): −8.54 (0.97)
- ISS7 % Change difference for rilzabrutinib vs. placebo LS Mean (95% CI) (400 mg TID, Week 8): −19.18 (−36.57, −1.80) %
- ISS7 % Change from baseline LS Mean (SE) (400 mg TID, Week 8): −51.09 (6.57) %
- ISS7 Change difference for rilzabrutinib vs. placebo LS Mean (95% CI) (400 mg TID, Week 8): −2.52
- ISS7 Change from baseline LS Mean (SE) (400 mg TID, Week 8): −7.93 (1.03)
- ISS7 % Change difference for rilzabrutinib vs. placebo LS Mean (95% CI) (400 mg TID, Week 9): −24.44 (−41.44, −7.44) %
- ISS7 % Change from baseline LS Mean (SE) (400 mg TID, Week 9): −53.94 (6.32) %
- ISS7 Change difference for rilzabrutinib vs. placebo LS Mean (95% CI) (400 mg TID, Week 9): −3.43
- ISS7 Change from baseline LS Mean (SE) (400 mg TID, Week 9): −8.45 (1.00)
- ISS7 % Change difference for rilzabrutinib vs. placebo LS Mean (95% CI) (400 mg TID, Week 10): −20.32 (−38.47, −2.16) %
- ISS7 % Change from baseline LS Mean (SE) (400 mg TID, Week 10): −54.88 (6.72) %
- ISS7 Change difference for rilzabrutinib vs. placebo LS Mean (95% CI) (400 mg TID, Week 10): −2.91
- ISS7 Change from baseline LS Mean (SE) (400 mg TID, Week 10): −8.59 (1.03)
- ISS7 % Change difference for rilzabrutinib vs. placebo LS Mean (95% CI) (400 mg TID, Week 11): −22.62 (−40.61, −4.64) %
- ISS7 % Change from baseline LS Mean (SE) (400 mg TID, Week 11): −53.92 (6.66) %
- ISS7 Change difference for rilzabrutinib vs. placebo LS Mean (95% CI) (400 mg TID, Week 11): −3.19
- ISS7 Change from baseline LS Mean (SE) (400 mg TID, Week 11): −8.50 (1.02)
- ISS7 % Change difference for rilzabrutinib vs. placebo LS Mean (95% CI) (400 mg TID, Week 12): −23.84 (−41.97, −5.71) %
- ISS7 % Change from baseline LS Mean (SE) (400 mg TID, Week 12): −58.05 (6.73) %
- ISS7 Change difference for rilzabrutinib vs. placebo LS Mean (95% CI) (400 mg TID, Week 12): −3.44
